No constants are given. Whether binding was seen depends on the method and setting. Some entries that bind do so weakly or less than the wild type.
Target: GST-SNAP25 197 (UniProt P60880)
Assay: direct ELISA; […]; 1 h at room temperature

The chains behind the UniProt entries cited, without tags or fusion partners. Residues count along the entry.
UniProt P60880, residues 1-197: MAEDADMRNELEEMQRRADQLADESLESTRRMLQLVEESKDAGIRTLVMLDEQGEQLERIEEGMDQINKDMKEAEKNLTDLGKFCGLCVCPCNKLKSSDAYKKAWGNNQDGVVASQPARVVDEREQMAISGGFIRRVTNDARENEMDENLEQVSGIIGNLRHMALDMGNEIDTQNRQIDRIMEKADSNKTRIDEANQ

B1: C16 IgG-HRP 접합체 (antibody, V domains shown)
VH: EVQLQQSGAELARPGASVQMSCKAFGYTFTNYTMHWVRQRPGQGLEWIGFINPSSDYTNYNQKFKDKATLSADKSSSTAYMQLSSLTSEDSAVYYCARRIFYNGRTYAAMDYWGQGTSVTVSS
VL: DIVMTQSPASLAVSLGQRATISCRASKSVSSSGYSYMHWYQQKPGQPPKLLIYLASNLESGVPARFSGSGSGTDFTLNIHPVEEEDAATYYCQHSRELPLTFGAGTKLELK
Q: B1 was tested. Which binding did it give?
A: binds

Reference: patent KR20200072008A
